The source of these data is article PMC10646219.

Assay [1] concerns the target T1, TLR6 (mouse (endogenous in DC2.4)) (UniProt Q9EPW9).
T1 sequence: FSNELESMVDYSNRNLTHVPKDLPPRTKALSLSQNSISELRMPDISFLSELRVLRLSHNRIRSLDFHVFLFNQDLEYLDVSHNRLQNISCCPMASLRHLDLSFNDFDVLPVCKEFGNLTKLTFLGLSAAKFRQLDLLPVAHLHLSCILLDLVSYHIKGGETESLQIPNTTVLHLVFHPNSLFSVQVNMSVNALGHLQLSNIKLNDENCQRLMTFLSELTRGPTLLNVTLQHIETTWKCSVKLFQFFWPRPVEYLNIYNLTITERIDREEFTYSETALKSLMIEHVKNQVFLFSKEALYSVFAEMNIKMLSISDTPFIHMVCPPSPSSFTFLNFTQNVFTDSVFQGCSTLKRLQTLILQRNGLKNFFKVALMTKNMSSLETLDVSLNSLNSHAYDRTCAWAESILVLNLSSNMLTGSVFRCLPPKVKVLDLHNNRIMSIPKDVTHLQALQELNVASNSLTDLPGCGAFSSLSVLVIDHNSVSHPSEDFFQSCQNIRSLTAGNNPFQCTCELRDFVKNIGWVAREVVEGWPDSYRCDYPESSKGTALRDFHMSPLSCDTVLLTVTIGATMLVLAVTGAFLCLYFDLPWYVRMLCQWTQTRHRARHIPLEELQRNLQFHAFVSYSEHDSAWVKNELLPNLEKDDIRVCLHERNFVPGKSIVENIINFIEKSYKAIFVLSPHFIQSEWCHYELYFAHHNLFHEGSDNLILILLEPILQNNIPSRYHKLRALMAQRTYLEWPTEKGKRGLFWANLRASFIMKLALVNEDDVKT
Nature of the assay: co-IP; endogenous proteins; DC2.4 cells co-cultured 24 h with Scramble- or Arf1-ablated CT26 cells, lysed in NP-40 lysis buffer; supernatants incubated with anti-CD36, anti-TLR2, anti-TLR6 or anti-Rab7 antibody overnight at 4 °C, agarose beads 2 h, washed three times with NP-40 buffer, immunoblotting. (In general: In western blotting, separated proteins are transferred to a membrane and probed.)

The target in assay [2] is Rab7 (mouse (endogenous in DC2.4)). The assay is described as above.

These are yes or no findings as the source states them, for the method shown. In cells and extracts the contact can be indirect. Binding can be weak; no strength is given.

Regarding Rab7 (mouse (endogenous in DC2.4)), the binding entry in assay [1] is on record as “binds”.

B1: TLR6 (receptor, UniProt Q9EPW9 28-795)
chain: T1 sequence
On to B1, for which the binding result in assay [2] was “binds”.
